These results are taken from article PMC9894248, “Alanine synthesized by alanine dehydrogenase enables ammonium-tolerant nitrogen fixation in Paenibacillus sabinae T27”.

The exact form of at least one protein or probe is not confirmed. For some assays here: Weaker means in comparison with the reference protein, sequence or condition of that experiment. Protein sequences can lack the tags named with them.

For data set [1], the target named is T1, GlnR (Paenibacillus sabinae T27) (UniProt X4ZZY3).
T1 sequence (looked up, limits assumed): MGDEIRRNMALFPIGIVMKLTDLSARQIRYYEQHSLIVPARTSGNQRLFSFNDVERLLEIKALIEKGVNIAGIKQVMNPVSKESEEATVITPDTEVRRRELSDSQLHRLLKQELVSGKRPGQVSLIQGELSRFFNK
As to the kind of experiment: SPR. As to conditions: GlnR alone, 0-500 nM, binds with lower affinity than site I; SPR: SA chip, 250 RU DNA, GlnR 0-500 nM with or without 25 nM GS; recombinant protein; protein details: N-His6; label: 5' biotin on capture linker S3.

Data set [2] has as its target T1, GlnR (Paenibacillus sabinae T27). As to the kind of experiment: EMSA. The following applies: GlnR 2-256 nM without FBI-GS, lower affinity than with FBI-GS; EMSA: 20 ul, 1 ug poly[d(A-T)], 0.3 nM probe, 30 min, 25 C; binding buffer (given for protein dialysis) 20 mM HEPES pH 7.6, 1 mM EDTA, 10 mM (NH4)2SO4, 1 mM DTT; recombinant protein; protein details: N-His6; label: 3' DIG (Methods), biotin (Fig. S6 legend).

For “AAGGTTGGAGTCAGGTTAACTGACACGTCGGATGTAGGT / ACCTACATCCGACGTGTCAGTTAACCTGACTCCAACCTTCCTACCCTACGTCCTCCTGC / GCAGGAGGACGTAGGGTAGG [SPR probe GlnR site II (TS2)]”, the binding result in data set [1] is listed as “binds more weakly”. As for “TTTTCAAGAAAGGTTGGAGTCAGGTTAACTGACACGTCGGATG (double strand) [nif promoter GlnR site II EMSA probe (nifR2)]”, the binding result in data set [2] is given as “binds”.
